Assay results: the supplement of paper PMC10849652
The list shows a part of the results. Residues, ends and D or L forms follow the SMILES beside them. *: point of attachment. Cbz = O=C(OCc1ccccc1)*

Protein sequences, listed by entry. Tags and fused reporters are not part of them. Lines headed by an entry give the natural chain unless they say otherwise; changes in a name come on top.
UniProt Q7LGA3: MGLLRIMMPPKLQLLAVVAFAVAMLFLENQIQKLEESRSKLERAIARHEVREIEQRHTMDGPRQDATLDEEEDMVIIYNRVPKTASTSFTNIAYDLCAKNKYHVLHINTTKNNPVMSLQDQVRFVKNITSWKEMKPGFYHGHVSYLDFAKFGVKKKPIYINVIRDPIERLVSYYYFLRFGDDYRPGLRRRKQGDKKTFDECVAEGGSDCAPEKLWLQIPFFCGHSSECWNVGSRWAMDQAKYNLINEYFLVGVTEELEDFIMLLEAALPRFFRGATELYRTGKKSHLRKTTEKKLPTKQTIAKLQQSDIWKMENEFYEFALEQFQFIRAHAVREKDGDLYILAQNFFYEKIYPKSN
UniProt P17096: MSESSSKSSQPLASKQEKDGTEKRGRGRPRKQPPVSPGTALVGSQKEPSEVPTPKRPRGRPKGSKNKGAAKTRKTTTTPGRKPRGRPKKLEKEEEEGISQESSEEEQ
UniProt P26583: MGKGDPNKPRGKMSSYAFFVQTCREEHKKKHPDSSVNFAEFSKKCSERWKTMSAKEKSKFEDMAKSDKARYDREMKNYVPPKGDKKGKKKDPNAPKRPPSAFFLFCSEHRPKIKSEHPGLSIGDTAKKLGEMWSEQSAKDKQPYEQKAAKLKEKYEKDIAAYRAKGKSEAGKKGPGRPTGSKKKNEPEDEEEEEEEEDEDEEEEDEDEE
UniProt Q92506: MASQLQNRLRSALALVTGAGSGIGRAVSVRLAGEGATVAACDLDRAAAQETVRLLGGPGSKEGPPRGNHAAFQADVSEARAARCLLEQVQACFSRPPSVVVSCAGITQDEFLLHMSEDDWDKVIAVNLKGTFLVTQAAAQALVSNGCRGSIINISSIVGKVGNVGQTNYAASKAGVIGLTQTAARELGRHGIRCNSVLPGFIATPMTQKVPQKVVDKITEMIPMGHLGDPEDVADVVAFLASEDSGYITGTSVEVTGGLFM
UniProt O75330: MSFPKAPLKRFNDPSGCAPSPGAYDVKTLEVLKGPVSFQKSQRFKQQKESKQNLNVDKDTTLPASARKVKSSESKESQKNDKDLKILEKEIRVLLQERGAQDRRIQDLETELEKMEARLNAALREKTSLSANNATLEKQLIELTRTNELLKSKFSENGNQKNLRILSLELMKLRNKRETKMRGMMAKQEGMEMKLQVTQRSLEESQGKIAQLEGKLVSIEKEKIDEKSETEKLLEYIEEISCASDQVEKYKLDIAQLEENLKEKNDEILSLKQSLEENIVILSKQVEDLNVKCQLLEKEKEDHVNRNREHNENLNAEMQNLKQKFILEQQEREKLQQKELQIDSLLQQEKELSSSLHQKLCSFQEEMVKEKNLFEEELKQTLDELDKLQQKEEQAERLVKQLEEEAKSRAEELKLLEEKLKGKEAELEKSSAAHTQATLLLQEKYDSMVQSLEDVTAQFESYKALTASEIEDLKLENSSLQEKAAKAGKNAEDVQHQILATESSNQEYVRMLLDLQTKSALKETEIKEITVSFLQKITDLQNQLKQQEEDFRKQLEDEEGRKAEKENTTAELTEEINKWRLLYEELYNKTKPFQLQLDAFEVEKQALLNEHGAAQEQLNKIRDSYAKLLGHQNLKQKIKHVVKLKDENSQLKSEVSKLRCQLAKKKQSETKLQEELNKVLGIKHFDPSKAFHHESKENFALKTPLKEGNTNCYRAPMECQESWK
UniProt Q9NSE4: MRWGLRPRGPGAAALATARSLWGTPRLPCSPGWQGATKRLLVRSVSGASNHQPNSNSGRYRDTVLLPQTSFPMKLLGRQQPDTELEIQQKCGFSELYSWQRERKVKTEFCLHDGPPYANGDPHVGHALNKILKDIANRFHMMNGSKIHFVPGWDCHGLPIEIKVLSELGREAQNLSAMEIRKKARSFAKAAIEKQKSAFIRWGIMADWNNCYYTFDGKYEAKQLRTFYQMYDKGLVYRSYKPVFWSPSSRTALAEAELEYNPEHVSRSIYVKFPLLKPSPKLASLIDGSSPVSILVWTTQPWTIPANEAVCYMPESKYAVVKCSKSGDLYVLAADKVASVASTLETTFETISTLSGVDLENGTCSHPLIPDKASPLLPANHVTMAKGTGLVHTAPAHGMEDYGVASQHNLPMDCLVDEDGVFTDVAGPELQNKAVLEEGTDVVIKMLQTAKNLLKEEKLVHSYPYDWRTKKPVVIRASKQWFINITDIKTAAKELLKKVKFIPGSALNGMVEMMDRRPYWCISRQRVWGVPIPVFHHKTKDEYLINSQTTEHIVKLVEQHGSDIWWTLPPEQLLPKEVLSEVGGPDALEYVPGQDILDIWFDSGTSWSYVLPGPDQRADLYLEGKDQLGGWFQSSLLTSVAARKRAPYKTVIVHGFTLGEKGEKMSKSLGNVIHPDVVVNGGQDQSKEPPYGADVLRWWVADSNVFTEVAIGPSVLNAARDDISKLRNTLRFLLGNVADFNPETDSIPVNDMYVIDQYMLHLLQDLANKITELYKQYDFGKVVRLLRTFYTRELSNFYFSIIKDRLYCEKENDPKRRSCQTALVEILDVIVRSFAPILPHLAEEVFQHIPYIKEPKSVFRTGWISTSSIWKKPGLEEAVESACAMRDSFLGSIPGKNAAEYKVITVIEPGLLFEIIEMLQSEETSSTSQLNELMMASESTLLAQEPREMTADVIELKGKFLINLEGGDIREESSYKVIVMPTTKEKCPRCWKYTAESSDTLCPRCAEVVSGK

Assays:
Test in all cases: log2 fold change, soluble protein after heating vs DMSO (PISA); higher = thermal stabilisation; K562 cells, 10 uM, 30 min; active = over 0.2 and 3.5 SD of the protein, either way, in both replicates (recomputed)
IRAK-1-4 Inhibitor I = compound: C1COCCN1CCN2C3=CC=CC=C3N=C2NC(=O)C4=CC(=CC=C4)[N+](=O)[O-] [IRAK-1-4 Inhibitor I]
Outline: (§1)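 Aliquots of K562 cells (2×10^6 cells/mL) treated with 10 μM compound for 30 min were heated for 3 min over 48°C-58°C. After pooling and extraction in PBS with 0.5% NP-40 at 4°C, soluble protein from a 21,000xg, 90 min spin was quantified by TMTpro 16plex LC-MS/MS with channel sums equalised. Thermal stability is expressed against control samples, from duplicates, as a log2 fold change.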

ibrutinib = compound: C=CC(=O)N1CCC[C@@H](n2nc(-c3ccc(Oc4ccccc4)cc3)c3c(N)ncnc32)C1 [ibrutinib]
Outline: as §1

[1] = compound: CC(=O)c1cnc2ccc(-c3cc(Cl)c(O)c(Cl)c3)nc2c1N[C@H]1CC[C@H](CN(C)C)CC1
Outline: as §1

ralimetinib = compound: CC(C)(C)Cn1c(N)nc2ccc(-c3[nH]c(C(C)(C)C)nc3-c3ccc(F)cc3)nc21 [ralimetinib]
Outline: as §1

[2] = compound: CC(C)(O)CC(=O)NCCn1ccc2ncnc(Nc3ccc(Oc4cccc(C(F)(F)F)c4)c(Cl)c3)c21
Outline: as §1

[3] = compound: CC(C)C1=C2N=C(C=C(N2N=C1)NCC3=CC=CC=C3)NCCCCCCN
Outline: as §1

[4] = compound: CC(C)C[C@@H](C=O)NC(=O)[C@H](CC(C)C)NC(=O)[C@H](CC(C)C)NC(=O)OCc1ccccc1
Outline: as §1

pinometostat = compound: CC(C)N(C[C@H]1O[C@@H](n2cnc3c(N)ncnc32)[C@H](O)[C@@H]1O)[C@H]1C[C@@H](CCc2nc3cc(C(C)(C)C)ccc3[nH]2)C1 [pinometostat]
Outline: as §1

[5] = compound: CC1=C(C(CC(=O)N1)C2=CC=C(C=C2)C(F)(F)F)C(=O)NC3=C(C=C4C(=C3)C=NN4)F
Outline: as §1

[6] = compound: CC1=C(C2=C(C=C1)C(=O)C3=CC=CC=C3N2CCCN)C
Outline: as §1

[7] = compound: CC1=C(C=C(C=C1)NC(=O)C2=CC(=CC=C2)C(C)(C)C#N)NC3=CC4=C(C=C3)N=CN(C4=O)C
Outline: as §1

[8] = compound: CC1=C(C=C(C=C1)NC(=O)C2=CC(=CC=C2)N(C)C)NC(=O)C3=CC=C(C=C3)O
Outline: as §1

[9] = compound: CC1=CC=C(C=C1)SC2=C3C=C(SC3=CN=C2)C(=O)N
Outline: as §1

[10] = compound: CC1=NC(=CC=C1)C2=C(N=C(N2)C(C)(C)C)C3=CC4=NC=CN=C4C=C3
Outline: as §1

Nexturastat A = compound: CCCCN(Cc1ccc(C(=O)NO)cc1)C(=O)Nc1ccccc1 [Nexturastat A]
Outline: as §1

vemurafenib = compound: CCCS(=O)(=O)Nc1ccc(F)c(C(=O)c2c[nH]c3ncc(-c4ccc(Cl)cc4)cc23)c1F [vemurafenib]
Outline: as §1

[11] = compound: CCCS(=O)(=O)Nc1ccc(F)c(C(=O)c2c[nH]c3ncc(Cl)cc23)c1F
Outline: as §1

[12] = compound: CCCc1cc(C)[nH]c(=O)c1CNC(=O)c1cc(-c2ccnc(N3CCN(C)CC3)c2)cc2c1cnn2C(C)C
Outline: as §1

givinostat = compound: CCN(CC)Cc1ccc2cc(COC(=O)Nc3ccc(C(=O)NO)cc3)ccc2c1 [givinostat]
Outline: as §1

barasertib = compound: CCN(CCCOc1ccc2c(Nc3cc(CC(=O)Nc4cccc(F)c4)[nH]n3)ncnc2c1)CCOP(=O)(O)O [barasertib]
Outline: as §1

Target | log2 fold change (IRAK-1-4 Inhibitor I) | log2 fold change (ibrutinib) | log2 fold change [1] | log2 fold change (ralimetinib) | log2 fold change [2] | log2 fold change [3] | log2 fold change [4] | log2 fold change (pinometostat) | log2 fold change [5] | log2 fold change [6] | log2 fold change [7] | log2 fold change [8] | log2 fold change [9] | log2 fold change [10] | log2 fold change (Nexturastat A) | log2 fold change (vemurafenib) | log2 fold change [11] | log2 fold change [12] | log2 fold change (givinostat) | log2 fold change (barasertib)
HS2ST1 (UniProt Q7LGA3) | inactive: -0.008 | inactive: 0.022 | inactive: 0.059 | inactive: 0.001 | inactive: 0.052 | inactive: -0.034 | inactive: 0.025 | inactive: 0.068 | inactive: 0.002 | inactive: 0.118 | inactive: -0.048 | inactive: 0.103 | inactive: -0.048 | inactive: -0.042 | inactive: 0.063 | inactive: -0.022 | inactive: -0.02 | inactive: 0.014 | inactive: -0.058 | inactive: 0.02
HMGA1 (UniProt P17096) | inactive: -0.131 | inactive: 0.012 | inactive: -0.074 | inactive: 0.149 | inactive: 0.228 | inactive: 0.062 | inactive: 0.195 | inactive: 0.074 | inactive: 0.029 | inactive: 0.089 | inactive: 0.024 | inactive: 0.047 | inactive: -0.111 | inactive: -0.029 | inactive: 0.104 | inactive: -0.007 | inactive: -0.097 | inactive: 0.017 | inactive: -0.05 | inactive: -0.029
HMGN4 (UniProt O00479) | inactive: -0.237 | inactive: 0.068 | inactive: 0.32 | inactive: 0.346 | inactive: -0.253 | inactive: 0.082 | inactive: -0.527 | inactive: 0.15 | inactive: -0.124 | inactive: 0.337 | inactive: 0.226 | inactive: -0.001 | inactive: 0.189 | inactive: -0.104 | inactive: -0.119 | inactive: -0.011 | inactive: 0.299 | inactive: 0.797 | inactive: -0.112 | inactive: -0.272
HMGB2 (UniProt P26583) | inactive: 0.069 | inactive: 0.043 | inactive: 0.054 | inactive: 0.036 | inactive: 0.043 | inactive: 0.118 | inactive: -0.037 | inactive: -0.058 | inactive: 0.017 | inactive: 0.079 | inactive: 0.058 | inactive: 0.009 | inactive: -0.017 | inactive: 0.088 | inactive: -0.001 | inactive: 0.004 | inactive: 0.006 | inactive: 0.13 | inactive: -0.026 | inactive: -0.001
HSD17B8 (UniProt Q92506) | inactive: 0.006 | inactive: 0.026 | inactive: -0.04 | inactive: -0.05 | inactive: 0.025 | inactive: 0.005 | inactive: -0.005 | inactive: -0.011 | inactive: 0.013 | inactive: 0.001 | inactive: 0.003 | inactive: 0.01 | inactive: 0.013 | inactive: -0.018 | inactive: -0.029 | inactive: 0.063 | inactive: -0.015 | inactive: -0.041 | inactive: -0.035 | inactive: -0.015
HMMR isoform 3 (UniProt O75330) | inactive: -0.076 | inactive: -0.031 | inactive: 0.005 | inactive: 0.066 | inactive: -0.022 | inactive: -0.121 | inactive: 0.128 | inactive: 0.155 | inactive: -0.014 | inactive: 0.064 | inactive: -0.006 | inactive: -0.042 | inactive: -0.013 | inactive: -0.026 | inactive: 0.103 | inactive: 0.045 | inactive: 0.013 | inactive: 0.037 | inactive: 0.042 | inactive: 0.039
IARS2 (UniProt Q9NSE4) | inactive: 0.006 | inactive: 0.014 | inactive: 0.018 | inactive: -0.031 | inactive: 0.005 | inactive: 0.028 | inactive: -0.015 | inactive: -0.073 | inactive: 0 | inactive: -0.003 | inactive: -0.034 | inactive: 0.015 | inactive: 0.007 | inactive: 0.039 | inactive: -0.04 | inactive: 0.002 | inactive: 0.022 | inactive: -0.02 | inactive: -0.042 | inactive: -0.007
HIST2H2BF isoform 2 (UniProt Q5QNW6) | inactive: -0.165 | inactive: 0.148 | inactive: -0.054 | inactive: 0.162 | inactive: 0 | inactive: -0.047 | inactive: 0.226 | inactive: 0.422 |  | inactive: 0.601 | inactive: -0.094 | inactive: -0.034 | inactive: -0.202 | inactive: -0.009 | active: 0.78 | inactive: -0.284 | inactive: 0.529 | inactive: 0.1 | inactive: 0.331 | inactive: -0.157
